According to PubChem BioAssay AID588590 (National Center for Advancing Translational Sciences (NCATS), 2011):
The whole screen tested about 390,000 compounds, of which about 4,000 (1%) were called active. The inconclusive results got no clear call from the source; some entries with a clear call stand among them for comparison. Calls follow the shape of the dose curve; as a rule, active = well fitted inhibition curve with a large enough effect; inconclusive = small, poorly fitted or top-dose-only effect, or another doubt; inactive = no such curve, though single readings can be large or run the other way. Potencies beside an inconclusive call are fits to weak or partial responses and may not hold up.

Chains of the proteins cited; added tags and fusions are not shown. Lines headed by an entry give the natural chain unless they say otherwise; changes in a name come on top.
UniProt Q9UNA4: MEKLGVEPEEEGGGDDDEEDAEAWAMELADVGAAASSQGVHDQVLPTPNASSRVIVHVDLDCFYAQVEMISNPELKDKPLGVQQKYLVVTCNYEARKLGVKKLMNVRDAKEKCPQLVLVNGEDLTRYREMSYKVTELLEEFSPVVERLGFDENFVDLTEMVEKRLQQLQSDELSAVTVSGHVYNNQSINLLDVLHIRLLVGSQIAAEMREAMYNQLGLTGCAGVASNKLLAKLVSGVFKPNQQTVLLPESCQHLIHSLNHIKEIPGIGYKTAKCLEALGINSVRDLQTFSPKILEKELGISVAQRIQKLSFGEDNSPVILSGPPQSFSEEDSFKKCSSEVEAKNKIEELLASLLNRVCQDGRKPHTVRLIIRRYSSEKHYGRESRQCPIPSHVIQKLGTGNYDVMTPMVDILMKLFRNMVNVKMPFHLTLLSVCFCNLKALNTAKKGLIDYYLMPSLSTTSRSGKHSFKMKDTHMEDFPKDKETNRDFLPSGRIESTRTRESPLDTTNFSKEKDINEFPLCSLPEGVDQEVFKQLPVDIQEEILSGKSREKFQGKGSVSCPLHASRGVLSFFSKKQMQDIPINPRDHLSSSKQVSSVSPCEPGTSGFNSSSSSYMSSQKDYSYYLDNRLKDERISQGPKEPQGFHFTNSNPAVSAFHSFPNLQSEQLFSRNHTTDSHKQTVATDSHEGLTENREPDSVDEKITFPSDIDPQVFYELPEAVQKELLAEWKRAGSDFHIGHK

target: DNA polymerase iota (Homo sapiens) (UniProt Q9UNA4); test: qHTS for Inhibitors of Polymerase Iota; conditions: Pol iota fluorescent replication assay, 10 min; series mostly up to 115 µM
Summary of the method: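 Fluorescent replication assay read twice, at 0 min and 10 min after adding 50 nM (final) substrate. Enzyme (10 nM) and compounds were first incubated 15 min at room temperature; enzyme-free buffer wells were negative controls.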
Potency is read from the fitted curve at half-maximal effect.

SMILES | Potency
CCOC(=O)Nc1cc2c(c(N)n1)N=C(c1ccccc1)CN2 | inconclusive: 31.6 µM [inhibitor, partial curve, poor fit]
COCCn1c(N)c(S(=O)(=O)c2cccs2)c2nc3ccccc3nc21 | inconclusive: 39.8 µM [inhibitor, single point]
COc1ccc([C@H]2C(C#N)=C([S-])N[C@](C)(O)[C@@H]2[n+]2ccccc2)cc1 | inconclusive: 22.4 µM [inhibitor, single point]
COc1cccc(C(=O)OCC(=O)NC2CCCc3ccccc32)c1O (configuration not stated) | inconclusive: 79.4 µM [inhibitor, partial curve]
C#CCOCCOCCOCCNc1nc(N2CCN(C(=O)[C@H](CCCCN)n3cc(C(N)[C@H](C)CC)nn3)CC2)nc(N2CCN(C(=O)[C@H](CCC(=O)O)n3cc(C(N)[C@H](C)CC)nn3)CC2)n1 (some centres not stated) | inconclusive: 39.8 µM [inhibitor, single point]
Cc1ccccc1CN1CCC(N2CCC(C(=O)NCC3CCCO3)CC2)CC1 (configuration not stated) | inconclusive: 89.1 µM [inhibitor, partial curve, poor fit]
Cc1ccc2c(c1)=C(c1sc(N(C)c3ccc(O)cc3)nc1O)C(=O)N=2 | inconclusive: 11.2 µM [inhibitor, partial curve, poor fit]
O=C(Nc1ccc(Cl)c(Cl)c1)N1CC=C(c2ccccc2)CC1 | inconclusive: 31.6 µM [inhibitor, single point]
COc1ccc(C(=O)NNC(=O)c2cccc3ccccc23)cc1 | inconclusive: 25.1 µM [inhibitor, partial curve, poor fit]
COc1cccc(-c2csc(N3CCN(C(=S)Nc4cccc(Cl)c4)CC3)n2)c1 | inconclusive: 39.8 µM [inhibitor, partial curve]
Cc1ccc(C)c(NC(=O)CCC(=O)N2CCOc3ccccc32)c1 | inactive
CC(C)(C)OC(=O)N(Cc1ccccc1)Cc1ccccc1OCc1cccc(NC(=O)C2CC2)c1 | inconclusive: 44.7 µM [inhibitor, partial curve, poor fit]
Cc1[nH]c2ccccc2c1C(=O)CN1C(=O)NC2(CC(C)CC(C)(C)C2)C1=O (configuration not stated) | inconclusive: 3.98 µM [inhibitor, full curve, poor fit]
CC(C)CN(CC(C)C)S(=O)(=O)N1CCC(C(=O)NCc2ccc3c(c2)OCO3)CC1 | inconclusive: 35.5 µM [inhibitor, partial curve]
O=C(O)c1cccc(CN2C(=O)S/C(=C/c3cccc([N+](=O)[O-])c3)C2=O)c1 | inconclusive: 25.1 µM [inhibitor, partial curve, poor fit]
COc1cccc(CNC(=O)c2ccc3c(c2)nc2n3CCOC2)c1OC | inactive
Cc1ccc(C)c(NC(=O)CN2CCN(C3CCCCC3)C(=O)C2=O)c1 | inactive
COc1ccc(/C=C/C(=O)NC(=S)Nc2ccc(S(=O)(=O)Nc3cc(C)on3)cc2)cc1 | inconclusive: 20 µM [inhibitor, partial curve, poor fit]
CCCc1nc2c([nH]1)c(=O)n(C)c(=O)n2C | inconclusive: 89.1 µM [inhibitor, single point]

In another format: results already given

| SMILES | Potency |
| --- | --- |
| COc1cccc(C(=O)OCC(=O)NC2CCCc3ccccc32)c1O (configuration not stated) | inconclusive: 79.4 µM [inhibitor, partial curve] |
| C#CCOCCOCCOCCNc1nc(N2CCN(C(=O)[C@H](CCCCN)n3cc(C(N)[C@H](C)CC)nn3)CC2)nc(N2CCN(C(=O)[C@H](CCC(=O)O)n3cc(C(N)[C@H](C)CC)nn3)CC2)n1 (some centres not stated) | inconclusive: 39.8 µM [inhibitor, single point] |
| Cc1ccccc1CN1CCC(N2CCC(C(=O)NCC3CCCO3)CC2)CC1 (configuration not stated) | inconclusive: 89.1 µM [inhibitor, partial curve, poor fit] |
| Cc1ccc2c(c1)=C(c1sc(N(C)c3ccc(O)cc3)nc1O)C(=O)N=2 | inconclusive: 11.2 µM [inhibitor, partial curve, poor fit] |
| O=C(Nc1ccc(Cl)c(Cl)c1)N1CC=C(c2ccccc2)CC1 | inconclusive: 31.6 µM [inhibitor, single point] |
| COc1ccc(C(=O)NNC(=O)c2cccc3ccccc23)cc1 | inconclusive: 25.1 µM [inhibitor, partial curve, poor fit] |
| COc1cccc(-c2csc(N3CCN(C(=S)Nc4cccc(Cl)c4)CC3)n2)c1 | inconclusive: 39.8 µM [inhibitor, partial curve] |
| Cc1ccc(C)c(NC(=O)CCC(=O)N2CCOc3ccccc32)c1 | inactive |
| CC(C)(C)OC(=O)N(Cc1ccccc1)Cc1ccccc1OCc1cccc(NC(=O)C2CC2)c1 | inconclusive: 44.7 µM [inhibitor, partial curve, poor fit] |
| Cc1[nH]c2ccccc2c1C(=O)CN1C(=O)NC2(CC(C)CC(C)(C)C2)C1=O (configuration not stated) | inconclusive: 3.98 µM [inhibitor, full curve, poor fit] |

Additional compounds

SMILES | Potency
COC/C=C/C1=CC2=CC(=O)C(C)(OC(=O)c3cnc4ccccc4n3)C(=O)C2=CN1CCCOC(C)C (configuration not stated) | inconclusive: 25.1 µM [inhibitor, partial curve, poor fit]
CCCN(CC(=O)Nc1ccccc1C)C(=O)CC(NC(=O)c1ccccc1)c1ccccc1 (configuration not stated) | inactive
CC(OC(=O)CCOc1ccccc1)C(=O)Nc1ccc(Cl)cn1 (configuration not stated) | inconclusive: 89.1 µM [inhibitor, single point]
CC1=CCC(C(=O)O)C(C(=O)NC2CCCCC2)C1 (configuration not stated) | inconclusive: 15.8 µM [inhibitor, partial curve, poor fit]
O=C(CSc1nnc2ccccn12)Nc1ncc(Cl)cc1Cl | inconclusive: 79.4 µM [inhibitor, partial curve]
COc1cccc(/C=C/C(=O)c2ccc3c(c2)OCO3)c1OC | inconclusive: 56.2 µM [inhibitor, partial curve, poor fit]
O=C1OCC(c2ccc(Cl)s2)=C1c1ccccc1[N+](=O)[O-] | inconclusive: 44.7 µM [inhibitor, partial curve]
O=C(NC(=S)NCCc1ccccc1)c1ccccc1 | inconclusive: 44.7 µM [inhibitor, partial curve, poor fit]
COc1ccc(Cn2c(-c3ccc(Br)cc3)c[n+]3ccccc23)cc1 | inconclusive: 39.8 µM [inhibitor, partial curve, poor fit]
CCOc1cccc(/C=N/N2C(C)CCCC2C)c1O (configuration not stated) | inconclusive: 2.82 µM [inhibitor, partial curve, poor fit]
CCCC(=O)n1nc(-c2ccccc2)nc1SC | inconclusive: 100 µM [inhibitor, partial curve, poor fit]
O=C(N/N=C\c1ccc([N+](=O)[O-])o1)c1cncc(Br)c1 | inconclusive: 12.6 µM [inhibitor, partial curve, poor fit]
COC(=O)c1c(NC(=O)CCc2ccc(C)o2)sc(C)c1C | inconclusive: 11.2 µM [inhibitor, full curve, poor fit]
O=C(COC(=O)c1ccc([N+](=O)[O-])o1)NCc1ccc2c(c1)OCO2 | inconclusive: 50.1 µM [inhibitor, partial curve, poor fit]
Cc1nc2c(c(=O)n1CCC(C)C)c1nc3ccccc3nc1n2CC1CCCO1 (configuration not stated) | inconclusive: 100 µM [inhibitor, partial curve, poor fit]
COc1ccc(Cl)cc1NC(=O)Cn1ncc2c3ccccc3n(Cc3ccccc3)c2c1=O | inactive
O=C(N/N=C/c1ccc(-c2ccc([N+](=O)[O-])cc2)o1)c1cccnc1 | inconclusive: 28.2 µM [inhibitor, partial curve, poor fit]
COc1cc(NC(=O)Cn2c(=O)n(CC(=O)NCCc3ccc(OC)c(OC)c3)c(=O)c3sccc32)cc(OC)c1 | inactive
